The target in this test is T1, purified PF3D7_1372300 bait protein (dot blot) (Plasmodium falciparum).
T1 sequence: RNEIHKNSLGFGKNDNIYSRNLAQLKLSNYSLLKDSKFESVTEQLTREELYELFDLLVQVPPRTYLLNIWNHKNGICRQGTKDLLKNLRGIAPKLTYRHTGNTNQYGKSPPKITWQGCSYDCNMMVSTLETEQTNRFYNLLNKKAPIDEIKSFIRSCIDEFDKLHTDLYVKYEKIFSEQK
The test can be described thus: far-Western, overlay or dot blot; purified PF3D7_1372300 bait immobilised on nitrocellulose; total protein from iRBCs added for 1 h (total protein from RBCs as negative control); detected with rat anti-ATS IgG; only the target purified.

These are yes or no findings as the source states them, for the method shown. A result given as binding can be weak or reduced; the word gives no strength.

Consider “PfEMP1 ATS in the total protein sample from iRBCs”, for which the binding entry is listed as “binds”.

The values are drawn from publication PMC7691434, “Interaction Analysis of a Plasmodium falciparum PHISTa-like Protein and PfEMP1 Proteins” (Frontiers in Microbiology, 2020).
